These are yes or no findings as the source states them, for the method shown. Binding calls can cover weak binding; strength is not graded here.
How the values were obtained:
[1] = biological target: Siglec-10 expressed on CHO cells (CHO-Siglec-10) (UniProt Q96LC7); assay: flow cytometry, 20 µg/ml VAP-1 on CHO-Siglec-10 cells against mock cells
[2] = biological target: recombinant human VAP-1 (Vascular Adhesion Protein-1) (human) (UniProt Q16853); assay: ELISA, biotinylated peptide on wells coated with VAP-1
[3] = biological target: recombinant human VAP-1 (Vascular Adhesion Protein-1) (human) (UniProt Q16853); assay: ELISA, biotinylated peptide on wells coated with 1 µg/ml VAP-1, BSA as control

Amino acid sequences for entries named in this document (tags omitted). A change or cut given only in a name is not applied to a line headed by its entry. Residues count along the entry.
UniProt Q96LC7, residues 17-697: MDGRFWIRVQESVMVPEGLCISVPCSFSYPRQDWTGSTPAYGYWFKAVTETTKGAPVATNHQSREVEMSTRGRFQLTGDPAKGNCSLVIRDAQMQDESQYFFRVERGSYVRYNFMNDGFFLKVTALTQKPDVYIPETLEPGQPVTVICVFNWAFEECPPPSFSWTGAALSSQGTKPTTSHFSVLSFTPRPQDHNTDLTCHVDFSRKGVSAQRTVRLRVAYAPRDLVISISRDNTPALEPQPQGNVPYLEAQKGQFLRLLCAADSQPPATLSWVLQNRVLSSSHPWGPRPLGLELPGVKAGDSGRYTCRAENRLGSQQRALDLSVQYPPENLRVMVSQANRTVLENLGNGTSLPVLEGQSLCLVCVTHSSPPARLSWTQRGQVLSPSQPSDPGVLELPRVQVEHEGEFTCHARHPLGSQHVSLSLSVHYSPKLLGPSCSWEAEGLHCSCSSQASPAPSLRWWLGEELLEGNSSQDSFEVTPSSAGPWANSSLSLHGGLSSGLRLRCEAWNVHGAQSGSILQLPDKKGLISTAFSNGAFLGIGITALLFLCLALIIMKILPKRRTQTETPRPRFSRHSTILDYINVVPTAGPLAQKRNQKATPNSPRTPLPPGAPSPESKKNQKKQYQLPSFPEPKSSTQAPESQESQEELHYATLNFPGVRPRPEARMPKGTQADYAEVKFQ
UniProt Q16853: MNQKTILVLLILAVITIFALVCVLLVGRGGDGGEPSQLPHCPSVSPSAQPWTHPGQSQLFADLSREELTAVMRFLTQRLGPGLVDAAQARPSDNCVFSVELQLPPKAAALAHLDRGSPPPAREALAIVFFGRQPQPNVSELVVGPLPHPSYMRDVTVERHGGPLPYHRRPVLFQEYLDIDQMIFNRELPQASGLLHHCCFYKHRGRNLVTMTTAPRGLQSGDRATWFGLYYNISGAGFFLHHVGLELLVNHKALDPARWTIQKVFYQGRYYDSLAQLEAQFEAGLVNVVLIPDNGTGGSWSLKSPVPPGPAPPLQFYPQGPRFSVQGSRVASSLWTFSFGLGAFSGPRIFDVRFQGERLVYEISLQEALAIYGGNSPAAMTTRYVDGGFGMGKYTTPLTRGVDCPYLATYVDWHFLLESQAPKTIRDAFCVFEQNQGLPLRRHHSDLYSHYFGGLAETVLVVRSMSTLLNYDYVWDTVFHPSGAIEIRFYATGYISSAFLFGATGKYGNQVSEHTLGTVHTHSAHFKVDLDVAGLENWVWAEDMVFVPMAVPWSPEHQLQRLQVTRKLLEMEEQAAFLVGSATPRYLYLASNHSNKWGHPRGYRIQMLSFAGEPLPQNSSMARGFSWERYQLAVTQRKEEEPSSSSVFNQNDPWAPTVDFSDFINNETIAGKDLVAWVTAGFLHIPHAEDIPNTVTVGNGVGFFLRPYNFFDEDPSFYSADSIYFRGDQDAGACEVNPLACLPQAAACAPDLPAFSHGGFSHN

Row | Molecule | binding [1] | binding [2] | binding [3]
1 | recombinant human VAP-1 (Vascular Adhesion Protein-1) (from UniProt Q16853) (enzyme) | binds |  | 
2 | CARLSLSWRGLTLCPS (biotinylated) [peptide P5 … (Siglec-9 peptide)] |  | binds | binds
3 | CATLSWVLQNRVLSSC (biotinylated; cysteines added to both ends) [peptide P3 … (Siglec-10 peptide)] |  | binds | binds

From patent publication US20100316569A1
